Some peptides are written in HELM: one residue between dots, names in brackets for other building blocks, links after the first $.
Test: peptide synthesis
Conditions: whole synthesis, scale 0.2 mmol

PEPTIDE1{V.Q.G.E.E.S.N.D.K}$$$$V2.0
isolated yield (calculated with respect to the quantity of the first amino acid bound to the resin): 63%
isolated mass: 126 mg

Reference: patent publication US4774320A (Sclavo S.p.A., priority 1986, dated 1988)
